± gives the standard deviation of the averaged measurements. Some of the results follow. Part of the spread comes from offsets between plates or batches.
Test system: E18 rat cortical neuron-glia co-culture
Assay: total nuclei (DAPI) / Olig2+ nuclei (ratio); higher = more depletion of OPC/OL lineage cells
Settings: treatment time: 8 days (DIV5-DIV13)

SMILES | total nuclei (1 µM) | total nuclei (5 µM)
CNC(=N)NCCC[C@H](N)C(=O)O | 3.41 | 4.9
CS(=O)(=O)c1ccc(C2=C(c3ccccc3)C(=O)OC2)cc1 [Rofecoxib] | > 40 | > 40
C[C@@H]1CN(CCCn2c3ccccc3c3ccccc32)C[C@H](C)N1 [Rimcazole] | 3.1 | 10.3
C#C[C@]1(O)CC[C@H]2[C@@H]3[C@H](C)CC4=C(CCC(=O)C4)[C@H]3CC[C@@]21C [Tibolone] | 2.73 | 2.8
C[C@]12CCC(=O)C=C1CC[C@@H]1[C@@H]2[C@@H](O)C[C@@]2(C)[C@H]1CC[C@]2(O)C(=O)CO [Hydrocortisone] | 3.52 ± 0.11 | 4.1 ± 0.14
CN(C)CCC=C1c2ccccc2COc2ccccc21 [Doxepin] | 3.25 ± 0.25 | 4.1 ± 0.99
O=c1[nH]c(=O)n(C2CCCO2)cc1F (stereo unspecified) [Tegafur] | 6.33 | 18
CC(C)NCC(O)COc1cccc2ccccc12 (stereo unspecified) [Propranolol] | 3.83 | 4.2
O=C(O)CCc1nc(-c2ccccc2)c(-c2ccccc2)o1 [Oxaprozin] | 2.88 | 2.9
Cc1onc(-c2ccccc2)c1-c1ccc(S(N)(=O)=O)cc1 [Valdecoxib] | 4.31 | 3.7
COc1cc(CNC(=O)CCCC/C=C\C(C)C)ccc1O [Zucapsaicin] | 4.42 | 12.3
CCN(CC)C(=S)SSC(=S)N(CC)CC [Disulfiram] | 4.58 | > 40
CC(C)C[C@H](NC(=O)[C@@H](COC(C)(C)C)NC(=O)[C@H](Cc1ccc(O)cc1)NC(=O)[C@H](CO)NC(=O)[C@H](Cc1c[nH]c2ccccc12)NC(=O)[C@H](Cc1cnc[nH]1)NC(=O)[C@@H]1CCC(=O)N1)C(=O)N[C@@H](CCCNC(=N)N)C(=O)N1CCC[C@H]1C(=O)NNC(N)=O [Goserelin] | 2.75 | 2.8
c1ccc2c(CC3=NCCN3)cccc2c1 [Naphazoline] | 4.59 | 4.3
CC(C(=O)O)c1ccc(-c2ccccc2)c(F)c1 (stereo unspecified) [Flurbiprofen] | 4.01 ± 1.7 | 5 ± 0.71
C/C(=C\C(=O)OCCCCCCCCC(=O)O)C[C@@H]1OC[C@H](C[C@@H]2O[C@H]2[C@@H](C)[C@H](C)O)[C@@H](O)[C@H]1O [Mupirocin] | 3.94 | 4.6
COc1ccc2cc([C@H](C)C(=O)O)ccc2c1 [Naproxen] | 2.79 | 2.8
CN(C)CCC(c1ccc(Cl)cc1)c1ccccn1 (stereo unspecified) [Chlorpheniramine] | 2.85 ± 0.19 | 2.85 ± 0.21
C[N+]1(C)CCC(OC(=O)C(O)(c2ccccc2)C2CCCC2)C1 (stereo unspecified) [Glycopyrrolate] | 3.17 ± 0.69 | 3.6 ± 1.1
CS(N)(=O)=O [Methanesulfonamide] | 2.8 | 2.7
CCCc1nc(C(C)(C)O)c(C(=O)O)n1Cc1ccc(-c2ccccc2-c2nnn[nH]2)cc1 [Olmesartan] | 4.71 | 4.2
COc1ccccc1N1CCN(CCCNc2cc(=O)n(C)c(=O)n2C)CC1 [Urapidil] | 3.56 | 4.2
C[C@]12C=CC(=O)C=C1CC[C@@H]1[C@@H]2C(=O)C[C@@]2(C)[C@H]1CC[C@]2(O)C(=O)CO [Prednisone] | 3.8 | 3.8
CC[C@H](C)C(=O)O[C@H]1C[C@H](O)C=C2C=C[C@H](C)[C@H](CC[C@@H](O)C[C@@H](O)CC(=O)O)[C@H]21 [Pravastatin] | 5.63 | 6.2

In the list so far, these contain fluorine.
SMILES | total nuclei (1 µM) | total nuclei (5 µM)
O=c1[nH]c(=O)n(C2CCCO2)cc1F (stereo unspecified) [Tegafur] | 6.33 | 18
CC(C(=O)O)c1ccc(-c2ccccc2)c(F)c1 (stereo unspecified) [Flurbiprofen] | 4.01 ± 1.7 | 5 ± 0.71

Later entries

SMILES | total nuclei (1 µM) | total nuclei (5 µM)
CC(=O)OCC[N+](C)(C)C [Acetylcholine] | 4.25 | 4.1
CC1(C)O[C@@H]2[C@@H](CO[C@@]3(COS(N)(=O)=O)OC(C)(C)O[C@@H]23)O1 [Topiramate] | 2.97 | 2.9
CCCCNc1cc(C(=O)O)cc(S(N)(=O)=O)c1Oc1ccccc1 [Bumetanide] | 2.76 | 2.8
NC1CCN(c2cccc(Cl)n2)CC1 | 5.35 | 4.2
CCN(Cc1ccncc1)C(=O)C(CO)c1ccccc1 (stereo unspecified) [Tropicamide] | 2.75 | 2.9
O=C(CCCN1CCC(O)(c2ccc(Cl)cc2)CC1)c1ccc(F)cc1 [Haloperidol] | 2.9 | 2.9
Fc1cncnc1 [5-fluoropyrimidine] | 2.73 | 2.6
C#C[C@]1(O)CC[C@H]2[C@@H]3CCC4=CC(=O)CC[C@@H]4[C@H]3CC[C@@]21C [Norethindrone] | 2.82 | 3
COc1ccc(/C=C/C(=O)Nc2ccccc2C(=O)O)cc1OC [Tranilast] | 3.2 | 3.1
Cc1[nH]cnc1CN1CCc2c(c3ccccc3n2C)C1=O [Alosetron] | 3.58 | 4.6
CN(C)CCCSc1ccccc1NC(=O)/C=C/c1ccccc1 [Cinanserin] | 3.26 | 3.6
CC[N+](C)(CC)CCOC(=O)C(O)(c1ccccc1)C1CCCCC1 (stereo unspecified) [Oxyphenonium] | 2.67 | 3.1
COC(=O)CCc1ccc(OCC(O)CNC(C)C)cc1 (stereo unspecified) [Esmolol] | 2.9 | 2.9
CSc1nc2cc(Cl)c(Oc3cccc(Cl)c3Cl)cc2[nH]1 [Triclabendazole] | 3.9 | 4.1
NS(=O)(=O)c1cc(C(=O)O)c(NCc2ccco2)cc1Cl [Furosemide] | 3.62 | 3.6
Nc1ccn([C@@H]2CS[C@H](CO)O2)c(=O)n1 [Lamivudine] | 4.58 ± 1.2 | 5.9 ± 3.1
CCN(CC)CCNC(=O)c1cc(Cl)c(N)cc1OC [Metoclopramide] | 3.91 | 2.9
CCC[C@@H]1C[C@@H](C(=O)N[C@@H]([C@H]2O[C@H](SC)[C@H](O)[C@@H](O)[C@H]2O)[C@@H](C)O)N(C)C1 [Lincomycin] | 2.5 | 2.5
NCC(=O)CCC(=O)O [Aminolevulinic Acid] | 2.91 | 4
O=C(O)Cc1ccccc1Nc1c(Cl)cccc1Cl [Diclofenac] | 3.9 | 4.1
CCC1=C(C)CN(C(=O)NCCc2ccc(S(=O)(=O)NC(=O)N[C@H]3CC[C@H](C)CC3)cc2)C1=O [Glimepiride] | 3.51 | 4.2
COc1cc2nc(N3CCN(C(=O)C4CCCO4)CC3)nc(N)c2cc1OC (stereo unspecified) [Terazosin] | 4.72 ± 1.7 | 4.15 ± 1.3
CCOC(=O)[C@H](CCc1ccccc1)N[C@@H](C)C(=O)N1Cc2ccccc2C[C@H]1C(=O)O [Quinapril] | 4.13 | 4
CCOc1cc(N)c(Cl)cc1C(=O)NCC1CN(Cc2ccc(F)cc2)CCO1 (stereo unspecified) [Mosapride] | 3.91 | 3.8
